{"source": "patent US6916446B1", "about": "“Bioreactor method, apparatus and product thereby” (The United States of America as represented by the …, priority 2002, dated 2005)", "test_system": "strain IMB-1", "experiment": "Growth of strain IMB-1 on substrates in mineral salts medium (Balch tubes)", "details": "substrate as electron donor / carbon and energy source", "note": "For at least one compound, name, drawing or mass did not settle the structure."}
{"smiles": "CC(=O)C(=O)O", "note": "[Pyruvate]", "values": [{"measurement": "growth of strain IMB-1 on the substrate (in words)", "value": "supported growth"}]}
